For the experiment, the target named is T1, DENR-3×FLAG-NeonGreen-dTAG (endogenously tagged DENR) (mouse (endogenous in NIH/3T3)) (UniProt Q9CQJ6).
T1 sequence: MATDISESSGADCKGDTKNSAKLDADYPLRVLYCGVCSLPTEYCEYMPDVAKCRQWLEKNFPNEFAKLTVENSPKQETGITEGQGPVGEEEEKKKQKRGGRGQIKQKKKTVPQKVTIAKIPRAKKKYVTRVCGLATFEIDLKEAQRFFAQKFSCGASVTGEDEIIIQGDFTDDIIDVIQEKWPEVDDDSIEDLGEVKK
Put plainly: affinity purification with mass spectrometry; FLAG-IP on anti-FLAG magnetic beads from extracts of NIH/3T3 DENR-3×FLAG-NeonGreen-dTAG cells, control-treated vs. treated with 500 nM dTAG-13 for 5 h; IP buffer 50 mM Tris-HCl pH 7.5, 120 mM NaCl, 1% NP-40, 10 mM MgCl2; 4 °C, 3 h; triplicates.

No constants are given. Whether binding was seen depends on the method and setting. Binding seen in cells or lysates may run through a third protein. These calls come from enrichment with a bait or labelling near it, and not all partners need be listed. Sequences can lack the tags named with a protein.

B1: MCTS2 (protein, UniProt Q9CQ21 1-181)
chain: MFKKFDEKESVSNCIQLKTSVIKGIKSQLTEQFPGIEPWLNQIMPKKDPVKIVRCHEHMEILTVNGELLFFRQRKGPFYPTLRLLHKYPFILPHQQVDKGAIKFVLSGANIMCPGLTSPGAKLYTAAVDTIVAVMAEGKEHALCVGVMKMAAADIEKINKGIGIENIHYLNDGLWHMKTYK
In the case of B1, the binding result was “binds”.

Values taken from PMC11790910.
